Measured values as given in patent US20220298260A1.
Results are given in words; binding and its absence hold for the method and conditions named. Some binding calls cover weakened binding; strength is not graded here.

Sequences of proteins named here, by UniProt entry; tags and fusion partners are left off. A change or cut given only in a name is not applied to a line headed by its entry.
UniProt P15328: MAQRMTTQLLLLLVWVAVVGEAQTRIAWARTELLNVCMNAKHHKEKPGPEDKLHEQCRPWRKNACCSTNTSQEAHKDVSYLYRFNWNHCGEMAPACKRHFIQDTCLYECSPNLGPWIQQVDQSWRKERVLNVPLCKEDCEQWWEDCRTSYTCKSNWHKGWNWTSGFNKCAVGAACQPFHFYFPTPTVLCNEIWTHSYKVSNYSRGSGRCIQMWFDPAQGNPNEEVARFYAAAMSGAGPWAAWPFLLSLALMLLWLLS

Each binder was assayed against FOLR1 (R&D Systems, Cat #5646-FR) (human) (UniProt P15328) (assay: BLI, IgG on anti-human Fc sensor, 50 nM FOLR1).

| Binder | binding |
| --- | --- |
| MYT1143 (antibody, V domains shown) VH: QVQLVQSGAEVVKPGASVKISCKHSGYTFTGYFMNWVKQSPGQSLEWIGRIHPHDGDTFYNQKFQGKATLTVDKSSNTAHMELLSLTSEDFAVYYCTRYDGSRAMDYWGQGTTVTVSS VL: DIVLTQSPLSLAVSLGQPAIISCKASQSVSFAGTSLMHWYHQKPGQQPRLLIYRASNLEAGVPDRFSGSGSKTDFTLTISPVEAEDAATYYCQQSREYPYTFGGGTKLEIK | binds |
| MYT1149 (antibody, V domains shown) VH: QVQLVQSGAEVVKPGASVKISCKASGYTFTGYFMNWVKQSPGQSLEWIGRIHPHDGDHFYNQKFQGKATLTVDKSSNTAHMELLSLTSEDFAVYYCTRYDGSRAMDYWGQGTTVTVSS VL: DIVLTQSPLSLAVSLGQPAIISCKASQSVSFAGTSLMHWYHQKPGQQPRLLIYRASNLEAGVPDRFSGSGSKTDFTLTISPVEAEDAATYYCQQSREYPYTFGGGTKLEIK | binds |
| MYT1146 (antibody, V domains shown) VH: QVQLVQSGAEVVKPGASVKISCKASGHTFTGYFMNWVKQSPGQSLEWIGRIHPHDGDTFYNQKFQGKATLTVDKSSNTAHMELLSLTSEDFAVYYCTRYDGSRAMDYWGQGTTVTVSS VL: DIVLTQSPLSLAVSLGQPAIISCKASQSVSFAGTSLMHWYHQKPGQQPRLLIYRASNLEAGVPDRFSGSGSKTDFTLTISPVEAEDAATYYCQQSREYPYTFGGGTKLEIK | binds |
| MYT1152 (antibody, V domains shown) VH: QVQLVQSGAEVVKPGASVKISCKHSGHTFTGYFMNWVKQSPGQSLEWIGRIHPHDGDTFYNQKFQGKATLTVDKSSNTAHMELLSLTSEDFAVYYCTRYDGSRAMDYWGQGTTVTVSS VL: DIVLTQSPLSLAVSLGQPAIISCKASQSVSFAGTSLMHWYHQKPGQQPRLLIYRASNLEAGVPDRFSGSGSKTDFTLTISPVEAEDAATYYCQQSREYPYTFGGGTKLEIK | binds |
| MYT1150 (antibody, V domains shown) VH: QVQLVQSGAEVVKPGASVKISCKASGYTFTGYFMNWVKQSPGQSLEWIGRIHPHDGDTHYNQKFQGKATLTVDKSSNTAHMELLSLTSEDFAVYYCTRYDGSRAMDYWGQGTTVTVSS VL: DIVLTQSPLSLAVSLGQPAIISCKASQSVSFAGTSLMHWYHQKPGQQPRLLIYRASNLEAGVPDRFSGSGSKTDFTLTISPVEAEDAATYYCQQSREYPYTFGGGTKLEIK | binds |
| MYT1145 (antibody, V domains shown) VH: QVQLVQSGAEVVKPGASVKISCKHSGYTFTGYFMNWVKQSPGQSLEWIGRIHPYDGDTHYNQKFQGKATLTVDKSSNTAHMELLSLTSEDFAVYYCTRYDGSRAMDYWGQGTTVTVSS VL: DIVLTQSPLSLAVSLGQPAIISCKASQSVSFAGTSLMHWYHQKPGQQPRLLIYRASNLEAGVPDRFSGSGSKTDFTLTISPVEAEDAATYYCQQSREYPYTFGGGTKLEIK | binds |
| MYT1147 (antibody, V domains shown) VH: QVQLVQSGAEVVKPGASVKISCKASGHTFTGYFMNWVKQSPGQSLEWIGRIHPYDGDHFYNQKFQGKATLTVDKSSNTAHMELLSLTSEDFAVYYCTRYDGSRAMDYWGQGTTVTVSS VL: DIVLTQSPLSLAVSLGQPAIISCKASQSVSFAGTSLMHWYHQKPGQQPRLLIYRASNLEAGVPDRFSGSGSKTDFTLTISPVEAEDAATYYCQQSREYPYTFGGGTKLEIK | binds |

Next, values leading:

| binding | Binder |
| --- | --- |
| binds | MYT1142 (antibody, V domains shown) VH: QVQLVQSGAEVVKPGASVKISCKHSGHTFTGYFMNWVKQSPGQSLEWIGRIHPYDGDTFYNQKFQGKATLTVDKSSNTAHMELLSLTSEDFAVYYCTRYDGSRAMDYWGQGTTVTVSS VL: DIVLTQSPLSLAVSLGQPAIISCKASQSVSFAGTSLMHWYHQKPGQQPRLLIYRASNLEAGVPDRFSGSGSKTDFTLTISPVEAEDAATYYCQQSREYPYTFGGGTKLEIK |
| binds | MYT1148 (antibody, V domains shown) VH: QVQLVQSGAEVVKPGASVKISCKASGHTFTGYFMNWVKQSPGQSLEWIGRIHPYDGDTHYNQKFQGKATLTVDKSSNTAHMELLSLTSEDFAVYYCTRYDGSRAMDYWGQGTTVTVSS VL: DIVLTQSPLSLAVSLGQPAIISCKASQSVSFAGTSLMHWYHQKPGQQPRLLIYRASNLEAGVPDRFSGSGSKTDFTLTISPVEAEDAATYYCQQSREYPYTFGGGTKLEIK |
| binds | MYT1153 (antibody, V domains shown) VH: QVQLVQSGAEVVKPGASVKISCKHSGHTFTGYFMNWVKQSPGQSLEWIGRIHPYDGDHFYNQKFQGKATLTVDKSSNTAHMELLSLTSEDFAVYYCTRYDGSRAMDYWGQGTTVTVSS VL: DIVLTQSPLSLAVSLGQPAIISCKASQSVSFAGTSLMHWYHQKPGQQPRLLIYRASNLEAGVPDRFSGSGSKTDFTLTISPVEAEDAATYYCQQSREYPYTFGGGTKLEIK |
| binds | MYT1144 (antibody, V domains shown) VH: QVQLVQSGAEVVKPGASVKISCKHSGYTFTGYFMNWVKQSPGQSLEWIGRIHPYDGDHFYNQKFQGKATLTVDKSSNTAHMELLSLTSEDFAVYYCTRYDGSRAMDYWGQGTTVTVSS VL: DIVLTQSPLSLAVSLGQPAIISCKASQSVSFAGTSLMHWYHQKPGQQPRLLIYRASNLEAGVPDRFSGSGSKTDFTLTISPVEAEDAATYYCQQSREYPYTFGGGTKLEIK |
| binds | MYT1151 (antibody, V domains shown) VH: QVQLVQSGAEVVKPGASVKISCKASGYTFTGYFMNWVKQSPGQSLEWIGRIHPYDGDHHYNQKFQGKATLTVDKSSNTAHMELLSLTSEDFAVYYCTRYDGSRAMDYWGQGTTVTVSS VL: DIVLTQSPLSLAVSLGQPAIISCKASQSVSFAGTSLMHWYHQKPGQQPRLLIYRASNLEAGVPDRFSGSGSKTDFTLTISPVEAEDAATYYCQQSREYPYTFGGGTKLEIK |
